Hit rate of the full screen: of about 31,000 sequences, about 1,400 (4.5%) were called active.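 How the source made its calls: active means median seed-adjusted z-score above 1 or below -1; inactive means the rest.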 The list shows a part of the results.

This assay can be described thus: Novel Modifiers of Survival Motor Neuron (SMN) Protein: Gene Identification via Genome-wide siRNA Screen. To be noted: HEK293T SMN2-luciferase reporter, siRNA knockdown, 72 h; actives lie on both sides. The method, boiled down: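 Each of three siRNAs per gene is reverse-transfected (1 pmol) into reporter HEK293T cells whose luciferase output tracks SMN protein level. After 72 h culture, ONE-Glo luminescence is control-normalized, log10-transformed and MAD-standardized; Common Seed Analysis deprioritizes seed-driven hits.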
With CAUUAUCACUGGUGCACUUTT against CHN1, the median seed-adjusted z-score is inactive: 2.1e-05. Regarding GGCUCCUCCUUGUACUCAATT against FOXO3, the median seed-adjusted z-score was inactive: -0.712. As for UGUUCAGUCUGGAAUUUCATT against MAP2K1, the median seed-adjusted z-score was inactive: 0.942.

For ACUCAUCUAAGGAUCUAAATT against KITLG, the median seed-adjusted z-score was inactive: 0.119.

With CCCAAGAACUGCUACGUCATT against SMPD2, the median seed-adjusted z-score is inactive: -0.406.

In the case of CGAGCAGUAUGAAUAUCAUTT against CDC45L, the median seed-adjusted z-score was inactive: -0.599. Consider AGUGAGCACCCUUACCUGATT against NOTCH3, for which the median seed-adjusted z-score is inactive: 0.395. As for GAUCCACGUUUCAAUGAUATT against CSNK2A1, the figure is inactive: -0.408; as for GGAGGGUGCAUGUACAUCUTT against ORC1L, inactive: -0.536. With GAAUGACUGAUGAAGUCGATT against KIF15 the figure was inactive: -0.873; with GCUCUGAUCUUCGAAAACATT against ZNF596, inactive: 0.486.

With GCCUCAACAUCGACGGCAATT against DIRAS1, the median seed-adjusted z-score is inactive: -0.751. On to UGACAGCUGUAGCAACUUUTT against SH3BP5, for which the median seed-adjusted z-score was inactive: -0.707. With GCAUUUAUCCGAGGAAACATT against LSM6, the median seed-adjusted z-score is inactive: -0.0501.

On to AGUCACAACUGGUCUAUCATT against LGALS3BP, for which the median seed-adjusted z-score is inactive: 0.187. On to ACAUAUCCUCAGAAUUUAATT against UBE2T, for which the median seed-adjusted z-score was inactive: -0.0157. Turning to UCAGUUACCUGCAUACCAATT against AEBP1, the median seed-adjusted z-score is inactive: -0.0536. With GGAACAACGACAAGACAGATT against MICAL1 the figure was inactive: 0.31; with GCAUUUCCGCGAGUGAGAATT against UCKL1, inactive: 0.695; with CGAUUCUACUGGAUGCAUUTT against SNUPN, inactive: -0.199.

As for GGUCAAAUGAAGAUAGAUUTT against MOV10L1, the median seed-adjusted z-score is inactive: -0.0497.

Regarding GAUGAAUUCUGGAGACGAUTT against PROZ, the median seed-adjusted z-score was inactive: -0.422.

As to CGAGGACACUCAAACGGAUTT against TAF7L, the median seed-adjusted z-score was inactive: -0.14. As for AACUUACAGAGAAAGAAUUTT against RCVRN, the figure is inactive: 0.562; as for AGCGAUCCAAGUUCAAGAATT against DLX1, inactive: 0.0356; as for CCCAGGCCGUAUUCCAGAATT against RABGGTA, inactive: -0.0601.

Take GGAUAUGGUGAGAAUAGAATT against MTHFS: the median seed-adjusted z-score is inactive: 0.166. As for GCUUCAUUGAGGACCCUGATT against PLEKHJ1, the figure is inactive: -0.213. With CCUCCGGAGAGAAAAAUGATT against NXF2 the figure was inactive: -0.0513.

(Values after PubChem BioAssay AID1347426 (Functional Genomics Laboratory (NCATS/FGL), 2020).)
